Data on one molecule can be found in paper PMC11117474.

Assay [1] has as its target armadillo-repeat domain of plakophilin 1 (ARM-PKP1). Description: far-UV circular dichroism (complex against sum of the isolated proteins); RYBP 20 uM, ARM-PKP1 2 uM; 25 °C; 20 mM Tris pH 7.5, 5 mM TCEP, 150 mM NaCl; 0.1 cm cell; both purified.
Assay [2] shares this target. The assay is described as follows: steady-state fluorescence spectra (complex against sum of the isolated proteins); RYBP 20 uM, ARM-PKP1 2 uM; 25 °C; 20 mM Tris pH 7.5, 5 mM TCEP, 150 mM NaCl; excitation at 280 or 295 nm; both purified.

These are yes or no findings as the source states them, for the method shown. Binding calls can cover weak binding; strength is not graded here.

B1: RYBP (RING1A and YY1 binding protein) (protein, UniProt Q8N488 1-228)
chain: MTMGDKKSPTRPKRQAKPAADEGFWDCSVCTFRNSAEAFKCSICDVRKGTSTRKPRINSQLVAQQVAQQYATPPPPKKEKKEKVEKQDKEKPEKDKEISPSVTKKNTNKKTKPKSDILKDPPSEANSIQSANATTKTSETNHTSRPRLKNVDRSTAQQLAVTVGNVTVIITDFKEKTRSSSTSSSTVTSSAGSEQQNQSSSGSESTDKGSSRSSTPKGDMSAVNDESF
In the case of B1, the binding result in assay [1] and in assay [2] was “binds” throughout.
